The assay has as its target T1, transforming growth factor β-activated kinase 1 (TAK1) (human (endogenous in HTR8/SVneo)) (UniProt O43318).
T1 sequence: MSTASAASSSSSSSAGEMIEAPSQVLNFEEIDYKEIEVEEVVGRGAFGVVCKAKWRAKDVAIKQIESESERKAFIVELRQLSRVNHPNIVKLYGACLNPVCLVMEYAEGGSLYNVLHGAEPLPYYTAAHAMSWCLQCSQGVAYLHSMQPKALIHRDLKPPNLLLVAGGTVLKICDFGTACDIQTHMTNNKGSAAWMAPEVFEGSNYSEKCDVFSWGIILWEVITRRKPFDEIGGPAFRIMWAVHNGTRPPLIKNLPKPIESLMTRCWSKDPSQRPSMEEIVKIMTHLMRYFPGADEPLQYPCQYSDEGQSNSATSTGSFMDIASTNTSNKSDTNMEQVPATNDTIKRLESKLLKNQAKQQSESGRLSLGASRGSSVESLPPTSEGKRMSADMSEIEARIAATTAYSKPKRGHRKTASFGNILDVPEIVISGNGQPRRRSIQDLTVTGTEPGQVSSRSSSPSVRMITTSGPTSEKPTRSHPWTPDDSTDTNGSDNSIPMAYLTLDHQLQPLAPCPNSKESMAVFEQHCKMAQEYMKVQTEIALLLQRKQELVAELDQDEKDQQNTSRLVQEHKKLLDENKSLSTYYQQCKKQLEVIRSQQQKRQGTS
The experiment in a line: co-IP; endogenous proteins in HTR8/SVneo cell lysate (IP lysis buffer); supernatant incubated with the indicated antibodies at 4 °C overnight, protein A/G magnetic beads 1 h at room temperature (Pierce Classic Magnetic IP/Co-IP Kit), western blot.

Protein sequences, listed by entry. Tags and fused reporters are not part of them. Residues count along the entry.
UniProt P46934: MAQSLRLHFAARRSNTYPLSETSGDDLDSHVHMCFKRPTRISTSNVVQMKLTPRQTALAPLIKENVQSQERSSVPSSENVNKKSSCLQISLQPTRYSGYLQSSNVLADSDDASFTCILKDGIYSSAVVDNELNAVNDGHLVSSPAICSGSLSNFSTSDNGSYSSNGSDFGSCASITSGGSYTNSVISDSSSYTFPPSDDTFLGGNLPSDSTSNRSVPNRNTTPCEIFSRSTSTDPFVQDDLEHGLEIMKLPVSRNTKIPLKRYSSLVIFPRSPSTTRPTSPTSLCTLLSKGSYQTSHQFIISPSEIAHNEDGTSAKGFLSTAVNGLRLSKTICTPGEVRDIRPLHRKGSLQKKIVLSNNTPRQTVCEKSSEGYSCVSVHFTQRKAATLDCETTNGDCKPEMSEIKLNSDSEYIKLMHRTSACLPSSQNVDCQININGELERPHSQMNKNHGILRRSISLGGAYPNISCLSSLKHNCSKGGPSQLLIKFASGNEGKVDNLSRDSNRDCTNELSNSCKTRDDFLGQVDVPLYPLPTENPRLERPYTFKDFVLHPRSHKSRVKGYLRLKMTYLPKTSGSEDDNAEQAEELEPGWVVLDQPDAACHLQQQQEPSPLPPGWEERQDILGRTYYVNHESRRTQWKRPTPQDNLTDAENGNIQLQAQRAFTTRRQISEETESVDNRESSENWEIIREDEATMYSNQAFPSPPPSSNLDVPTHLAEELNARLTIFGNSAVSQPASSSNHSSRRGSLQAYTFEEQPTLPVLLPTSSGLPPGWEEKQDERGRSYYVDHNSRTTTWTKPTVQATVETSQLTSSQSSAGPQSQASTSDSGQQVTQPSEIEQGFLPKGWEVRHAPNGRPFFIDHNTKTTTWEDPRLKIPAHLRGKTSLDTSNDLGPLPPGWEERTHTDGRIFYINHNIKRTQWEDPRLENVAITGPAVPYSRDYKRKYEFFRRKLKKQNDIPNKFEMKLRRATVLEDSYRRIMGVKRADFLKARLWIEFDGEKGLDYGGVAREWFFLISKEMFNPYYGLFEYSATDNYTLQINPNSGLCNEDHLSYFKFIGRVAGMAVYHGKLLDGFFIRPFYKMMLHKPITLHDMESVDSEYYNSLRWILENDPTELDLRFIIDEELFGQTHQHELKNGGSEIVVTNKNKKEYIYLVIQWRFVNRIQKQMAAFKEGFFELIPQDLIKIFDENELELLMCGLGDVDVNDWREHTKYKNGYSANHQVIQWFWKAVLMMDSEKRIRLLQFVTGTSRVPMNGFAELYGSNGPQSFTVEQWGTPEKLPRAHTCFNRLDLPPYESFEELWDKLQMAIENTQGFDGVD
UniProt P07996, residues 19-1170: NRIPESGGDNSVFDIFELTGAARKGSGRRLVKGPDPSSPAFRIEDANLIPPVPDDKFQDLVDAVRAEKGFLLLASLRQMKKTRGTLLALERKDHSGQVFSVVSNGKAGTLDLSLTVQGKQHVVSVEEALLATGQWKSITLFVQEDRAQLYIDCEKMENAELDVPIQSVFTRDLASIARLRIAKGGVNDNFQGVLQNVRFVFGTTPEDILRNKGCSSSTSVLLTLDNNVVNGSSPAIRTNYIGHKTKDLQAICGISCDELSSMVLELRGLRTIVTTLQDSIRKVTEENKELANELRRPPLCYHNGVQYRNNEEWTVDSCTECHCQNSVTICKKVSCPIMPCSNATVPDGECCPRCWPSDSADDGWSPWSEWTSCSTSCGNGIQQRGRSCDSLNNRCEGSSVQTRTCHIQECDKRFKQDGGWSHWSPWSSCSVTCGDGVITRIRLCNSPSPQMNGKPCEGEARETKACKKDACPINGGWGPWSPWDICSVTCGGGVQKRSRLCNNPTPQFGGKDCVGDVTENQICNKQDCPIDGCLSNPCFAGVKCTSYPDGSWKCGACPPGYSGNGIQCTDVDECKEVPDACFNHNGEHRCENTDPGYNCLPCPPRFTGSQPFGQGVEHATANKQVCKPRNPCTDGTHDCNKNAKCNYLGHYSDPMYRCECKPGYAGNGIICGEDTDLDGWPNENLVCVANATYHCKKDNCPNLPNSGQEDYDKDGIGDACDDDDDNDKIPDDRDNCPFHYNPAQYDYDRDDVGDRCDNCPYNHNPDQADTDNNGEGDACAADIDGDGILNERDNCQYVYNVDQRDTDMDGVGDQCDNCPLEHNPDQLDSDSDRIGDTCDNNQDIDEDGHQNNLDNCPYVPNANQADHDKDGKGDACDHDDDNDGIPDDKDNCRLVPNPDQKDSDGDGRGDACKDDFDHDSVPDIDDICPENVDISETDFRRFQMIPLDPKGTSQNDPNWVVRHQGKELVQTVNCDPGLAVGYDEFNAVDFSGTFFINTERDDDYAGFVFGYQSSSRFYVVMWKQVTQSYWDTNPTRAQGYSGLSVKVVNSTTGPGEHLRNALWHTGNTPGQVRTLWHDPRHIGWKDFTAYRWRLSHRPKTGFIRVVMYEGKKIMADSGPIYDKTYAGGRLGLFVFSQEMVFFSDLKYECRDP

These are yes or no findings as the source states them, for the method shown. In cells and extracts the contact can be indirect. Some entries that bind do so weakly or less than the wild type.

“neuronal precursor cell-expressed developmentally down-regulated 4 (NEDD4) (from UniProt P46934 1-1319) (enzyme)”: the binding entry is listed as “binds”.

For the substance “thrombospondin-1 (THBS1) (from UniProt P07996 19-1170)”, the binding result is “binds”.

These data come from publication PMC11151050.
